Results are given in words; binding and its absence hold for the method and conditions named. For some assays here: Binding calls can cover weak binding; strength is not graded here.
B1: MPV314 (antibody, V domains shown)
VH: QVQLVQSGGGVVQPGRSLRLSCAASGFSFSDYGMDWVRQAPGKGLEWVAVISYDGSNQYYADSVKGRFTVSRDNSKNTVYLQMNSLRAEDTAVYFCAKDESRRYYYSSGIHSHWGQGTLVTVSS
VL: DIVMTQSPATLSVSPGERATLSCRASQSVSRNLAWYQQKPGQAPRLLIFGASTRATGIPARFSGSASGTEFTLTISSLQSEDFAVYYCHQYNYWPPGTFGQGTRLEIK
B2: MPV364 (antibody, V domains shown)
VH: QVQLVQSGAEVKKPGASVKVSCKASGYTFTHDSIHWVRQAPGQRLEWMGWINVGNGDTKSSQKFQDRLTITRDTSANTAYMEVRSLKYEDTAMYFCARVDQYCIGGVCYGGKNWFDPWGQGTLVTVSS
VL: SYELNQPPSVSVAPGQTAMITCGGYYVGVKSLHWYQQKAGQAPVLVVHDDSDRPSGIPERFSGSKSGDTATLIISRVEAGDEADYYCQVWDRDSDHPYVFGTGTTVTVL
B3: MPV196 (antibody, V domains shown)
VH: QVQLQQWGAGLLKPSETLSLTCAVYGGSFSGYSWTWIRQPPGKGLEWIGEINHSGSTNYNPSLKSRVTISIDTSRNQFSLKLISVTAADTAVYYCARGVRGGYNLWHFDVWGQGTLVTVSS
VL: SYELSQSPSVSVSPGQTARITCSGDKLGNKYASWYQQKPGQSPVLVIYQDDKRPSGIPERFSGSNSGNTATLTIGGTQAMDEADYSCQAWDGRTAVVFGGGTKLTVL
B4: MPV458 (antibody, V domains shown)
VH: QGKLVESGGGVIQPGRSLRLSCAASGFDFSRYGLHWVRQAPGKGLEWVAVIVYAGSNKYYADSVKGRFTISKDNSKNTMHLQMSDLRTEDTAVYYCARDQAFDLWGQGTMVTVSS
VL: DIQMTQSPASLSASVGDRVTITCQASQGISRSVNWYQQKPGKAPKLLIFDASHLERGVPSRFSGSGYGTDFTFTISSLQPEDIATYYCQQYDNLRISFGQGTRLEIK

Legend:
[1] = biological target: Ply (Streptococcus pneumoniae); assay: condition: about 20 µg/mL (last point at log10 about 1.3); ELISA on coated antigen, mAb titrated
[2] = biological target: hMPV B2 F-GCN4 dFP 6R (human metapneumovirus); assay: ELISA
[3] = biological target: hMPV B2 F-GCN4 dFP 6R (human metapneumovirus); assay: ELISA, referred back to

Row | Binder | binding [1] | binding [2] | binding [3]
1 | B1 | no binding |  | 
2 | B2 | no binding |  | 
3 | B3 | no binding |  | 
4 | B4 |  | binds | binds

From patent publication US20230085439A1
